We go through three molecules from PMC2386837.

Test [1] addresses T1, V5-tagged Src64B^act (Drosophila) (UniProt P00528).
T1 sequence: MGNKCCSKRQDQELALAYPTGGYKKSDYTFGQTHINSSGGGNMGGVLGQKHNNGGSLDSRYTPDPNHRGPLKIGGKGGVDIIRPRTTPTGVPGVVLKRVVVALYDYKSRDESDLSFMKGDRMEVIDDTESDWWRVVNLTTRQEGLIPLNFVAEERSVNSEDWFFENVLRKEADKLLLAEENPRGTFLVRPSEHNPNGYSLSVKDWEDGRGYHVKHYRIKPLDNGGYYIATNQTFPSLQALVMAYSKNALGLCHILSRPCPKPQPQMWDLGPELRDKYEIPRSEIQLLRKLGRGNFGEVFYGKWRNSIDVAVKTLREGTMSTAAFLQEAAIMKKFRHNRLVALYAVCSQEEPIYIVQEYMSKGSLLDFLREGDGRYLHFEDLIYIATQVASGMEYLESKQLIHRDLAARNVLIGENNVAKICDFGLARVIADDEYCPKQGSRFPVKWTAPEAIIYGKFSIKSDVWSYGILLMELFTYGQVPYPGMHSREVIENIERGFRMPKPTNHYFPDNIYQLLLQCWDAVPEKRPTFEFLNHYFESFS
The test can be described thus: co-IP; S2 cells transfected with V5-tagged Src64B^act or Src64B^KR; IP with anti-V5; endogenous Draf detected in the precipitate.

Test [2] concerns the target T2, V5-tagged Draf-C^WT (Drosophila) (UniProt P11346).
T2 sequence: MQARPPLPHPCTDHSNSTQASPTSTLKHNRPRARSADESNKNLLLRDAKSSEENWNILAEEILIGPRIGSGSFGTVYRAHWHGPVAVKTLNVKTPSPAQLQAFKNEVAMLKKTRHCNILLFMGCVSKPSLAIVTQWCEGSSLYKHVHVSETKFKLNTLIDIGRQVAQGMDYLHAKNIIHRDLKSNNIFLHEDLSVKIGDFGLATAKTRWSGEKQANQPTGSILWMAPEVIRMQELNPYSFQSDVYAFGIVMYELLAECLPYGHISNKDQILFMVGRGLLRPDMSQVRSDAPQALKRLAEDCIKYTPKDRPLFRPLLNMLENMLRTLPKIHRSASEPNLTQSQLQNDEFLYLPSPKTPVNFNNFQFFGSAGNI
As to the kind of experiment: co-IP; S2 cells cotransfected with Src64B^act and V5-tagged Draf (FL), Draf-N or Draf-C; IP with anti-V5, blot with anti-Src64B.

In test [3] the target is T3, V5-tagged Draf-N (Drosophila) (UniProt P11346).
T3 sequence: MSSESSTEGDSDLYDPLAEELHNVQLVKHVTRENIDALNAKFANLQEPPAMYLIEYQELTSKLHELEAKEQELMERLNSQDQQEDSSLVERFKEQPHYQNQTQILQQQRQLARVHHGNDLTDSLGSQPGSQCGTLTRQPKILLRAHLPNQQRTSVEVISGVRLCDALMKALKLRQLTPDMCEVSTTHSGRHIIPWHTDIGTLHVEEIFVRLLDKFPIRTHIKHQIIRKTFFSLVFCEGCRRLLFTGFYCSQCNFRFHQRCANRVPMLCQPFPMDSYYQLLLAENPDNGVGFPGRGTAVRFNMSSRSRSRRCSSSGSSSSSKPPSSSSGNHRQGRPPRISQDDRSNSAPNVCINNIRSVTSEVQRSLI
The description is as above.

The target of test [4] is T4, V5-tagged full-length Draf (Drosophila) (UniProt P11346).
T4 sequence: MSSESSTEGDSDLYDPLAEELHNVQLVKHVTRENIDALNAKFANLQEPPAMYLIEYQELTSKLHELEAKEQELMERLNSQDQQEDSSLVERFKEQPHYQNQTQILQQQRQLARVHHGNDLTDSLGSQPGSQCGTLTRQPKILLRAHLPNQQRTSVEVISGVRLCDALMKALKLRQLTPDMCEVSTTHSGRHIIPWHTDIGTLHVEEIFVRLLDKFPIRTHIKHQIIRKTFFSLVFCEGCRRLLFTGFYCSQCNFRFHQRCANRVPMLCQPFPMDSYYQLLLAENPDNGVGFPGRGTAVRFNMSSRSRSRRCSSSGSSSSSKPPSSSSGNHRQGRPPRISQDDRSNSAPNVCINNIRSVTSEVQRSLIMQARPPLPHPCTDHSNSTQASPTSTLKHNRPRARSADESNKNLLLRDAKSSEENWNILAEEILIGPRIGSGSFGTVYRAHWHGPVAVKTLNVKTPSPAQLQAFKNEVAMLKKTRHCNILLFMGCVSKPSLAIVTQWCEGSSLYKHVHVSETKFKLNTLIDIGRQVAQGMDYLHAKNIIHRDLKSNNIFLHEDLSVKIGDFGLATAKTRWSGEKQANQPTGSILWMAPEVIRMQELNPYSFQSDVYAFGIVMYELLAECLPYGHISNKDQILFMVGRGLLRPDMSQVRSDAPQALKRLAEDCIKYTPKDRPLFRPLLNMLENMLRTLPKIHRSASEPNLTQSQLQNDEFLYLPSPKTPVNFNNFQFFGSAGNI
The description is as above.

Another test deals with T5, HA-Draf-N (Drosophila) (UniProt P11346).
T5 sequence: T3 sequence
The test can be described thus: co-IP; S2 cells cotransfected with V5-tagged Draf-C variants with or without HA-Draf-N; IP with anti-HA, blot with anti-V5; three independent western blots quantified.

Results are given in words; binding and its absence hold for the method and conditions named. In cells and extracts the contact can be indirect. Some results given as binding are weak or reduced against the parent protein; the word gives no strength. Where a sequence is shown, tags or fusion partners need not be part of it.

B1: endogenous Draf (protein, UniProt P11346 1-739)
chain: T4 sequence
As to B1, the binding entry in test [1] was “binds”.

B2: Src64B^act (activated Src64B, non-tagged) (domain or fragment, UniProt P00528 1-540)
chain: T1 sequence
Regarding B2, the values for the binding entry in test [2], in test [3] and in test [4] were “binds weakly”, “binds” and “binds”, respectively.

B3: V5-tagged Draf-C^WT (domain or fragment, UniProt P11346 368-739)
chain: T2 sequence
Regarding B3, in the test with HA-Draf-N (Drosophila), the binding entry is reported as “binds”.
